Measurements reported in PMC12711577.

Amino acid sequences for entries named in this document (tags omitted). A change or cut given only in a name is not applied to a line headed by its entry.
UniProt F4IMJ9: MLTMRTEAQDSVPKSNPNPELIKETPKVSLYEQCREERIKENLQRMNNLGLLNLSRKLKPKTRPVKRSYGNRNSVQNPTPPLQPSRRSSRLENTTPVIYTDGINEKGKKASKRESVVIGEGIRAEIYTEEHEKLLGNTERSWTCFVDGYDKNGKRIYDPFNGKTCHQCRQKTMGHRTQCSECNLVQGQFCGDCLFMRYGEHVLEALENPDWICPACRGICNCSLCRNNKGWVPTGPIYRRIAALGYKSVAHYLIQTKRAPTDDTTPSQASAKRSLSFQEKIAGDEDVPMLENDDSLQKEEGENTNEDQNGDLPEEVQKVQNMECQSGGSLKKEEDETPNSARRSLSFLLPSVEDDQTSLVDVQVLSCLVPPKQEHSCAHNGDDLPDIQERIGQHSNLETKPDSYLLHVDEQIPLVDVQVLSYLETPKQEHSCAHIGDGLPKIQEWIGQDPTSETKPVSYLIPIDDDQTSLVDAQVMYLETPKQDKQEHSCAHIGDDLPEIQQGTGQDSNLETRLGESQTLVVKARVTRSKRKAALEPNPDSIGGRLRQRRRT

Columns and labels:
[1] = biological target: DECREASE IN DNA …ON 1 (DDM1), recombinant (Arabidopsis thaliana) (UniProt Q9XFH4); test: pull-down; in vitro pulldown of recombinant CDCA7α and CDCA7β with DDM1, detected via western blot; three replicates; both purified
[2] = biological target: DECREASE IN DNA …ON 1 (DDM1), recombinant (Arabidopsis thaliana) (UniProt Q9XFH4); test: pull-down; in vitro pulldown of recombinant CDCA7α and CDCA7β with DDM1 at 150 mM NaCl (more restrictive salt); two pulldowns with different DDM1 tags; both purified

binding [1]: binds | binding [2]: binds
Substance: CELL DIVISION CYCLE-ASSOCIATED PROTEIN 7 beta (CDCA7β), recombinant (from UniProt F4IMJ9)

Results are given in words; binding and its absence hold for the method and conditions named. A result given as binding can be weak or reduced; the word gives no strength.
